Article doi:10.1101/2023.05.05.539603
Where a chain is given by its changes, count along the chain named. No constants are given. Whether binding was seen depends on the method and setting. Binding seen in cells or lysates may run through a third protein. Some entries that bind do so weakly or less than the wild type. Tags and fused reporters may be left off the sequences shown.

The chains behind the UniProt entries cited, without tags or fusion partners. Where a name states a change or a piece, a line headed by the entry shows the natural chain unless it says otherwise.
UniProt Q9NQG6, whole entry: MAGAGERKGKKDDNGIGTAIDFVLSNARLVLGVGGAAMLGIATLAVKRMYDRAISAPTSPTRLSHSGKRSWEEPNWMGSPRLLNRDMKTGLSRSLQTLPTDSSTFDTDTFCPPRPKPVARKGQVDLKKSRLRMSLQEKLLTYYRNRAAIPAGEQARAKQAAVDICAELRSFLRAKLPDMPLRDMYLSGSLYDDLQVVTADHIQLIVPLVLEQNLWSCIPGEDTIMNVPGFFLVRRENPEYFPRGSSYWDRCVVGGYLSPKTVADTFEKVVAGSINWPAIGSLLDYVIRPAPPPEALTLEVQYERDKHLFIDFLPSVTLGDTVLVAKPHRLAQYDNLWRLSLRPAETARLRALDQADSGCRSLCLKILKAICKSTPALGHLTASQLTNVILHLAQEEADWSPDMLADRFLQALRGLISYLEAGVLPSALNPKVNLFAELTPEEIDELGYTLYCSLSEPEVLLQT

Legend:
Experiment in all cases: co-IP
[1] = target: T1, CFP-MFF 2SA (S155A/S172A) (human) (UniProt Q9GZY8)
T1 sequence: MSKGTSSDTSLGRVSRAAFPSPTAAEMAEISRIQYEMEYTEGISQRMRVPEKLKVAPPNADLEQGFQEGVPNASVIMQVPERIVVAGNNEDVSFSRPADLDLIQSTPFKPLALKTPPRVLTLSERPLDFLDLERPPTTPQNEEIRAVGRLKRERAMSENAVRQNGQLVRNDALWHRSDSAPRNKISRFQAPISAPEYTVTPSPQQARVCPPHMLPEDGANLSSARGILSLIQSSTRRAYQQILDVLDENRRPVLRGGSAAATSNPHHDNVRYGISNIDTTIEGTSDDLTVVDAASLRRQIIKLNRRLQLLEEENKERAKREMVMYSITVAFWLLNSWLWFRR

[2] = target: T2, CFP-MFF 2SD (S155D/S172D) (human) (UniProt Q9GZY8)
T2 sequence: T1 sequence with A155D, A172D

CFP-MFF K151R (human) = target: T3, CFP-MFF K151R (human) (UniProt Q9GZY8)
T3 sequence: T1 sequence with K151R, A155S, A172S

[3] = target: T4, CFP-MFF WT (mitochondrial fission factor, human isoform 1) (human) (UniProt Q9GZY8)
T4 sequence: T1 sequence with A155S, A172S

GFP-MFF K151R (human) = target: T5, GFP-MFF K151R (human) (UniProt Q9GZY8)
T5 sequence: T1 sequence with K151R, A155S, A172S

[4] = target: T6, GFP-MFF WT (pAcGFP-tagged human MFF isoform 1) (human) (UniProt Q9GZY8)
T6 sequence: T1 sequence with A155S, A172S

Measured: binding

MiD51-HA (from UniProt Q9NQG6 1-463)
binds: all assays above

endogenous MiD51 (from UniProt Q9NQG6 1-463)
binds: GFP-MFF K151R (human) | [4]

B1: endogenous MiD49 (protein, UniProt Q96C03 1-454)
chain: MAEFSQKRGKRRSDEGLGSMVDFLLANARLVLGVGGAAVLGIATLAVKRFIDRATSPRDEDDTKADSWKELSLLKATPHLQPRPPPAALSQPVLPLAPSSSAPEGPAETDPEVTPQLSSPAPLCLTLQERLLAFERDRVTIPAAQVALAKQLAGDIALELQAYFRSKFPELPFGAFVPGGPLYDGLQAGAADHVRLLVPLVLEPGLWSLVPGVDTVARDPRCWAVRRTQLEFCPRGSSPWDRFLVGGYLSSRVLLELLRKALAASVNWPAIGSLLGCLIRPSMASEELLLEVQHERLELTVAVLVAVPGVDADDRLLLAWPLEGLAGNLWLQDLYPVEAARLRALDDHDAGTRRRLLLLLCAVCRGCSALGQLGRGHLTQVVLRLGEDNVDWTEEALGERFLQALELLIGSLEQASLPCHFNPSVNLFSSLREEEIDDIGYALYSGLQEPEGLL
binds: [1] | [2] | CFP-MFF K151R (human) | [3]

B2: MiD49-HA (protein, UniProt Q96C03 1-454)
chain: B1 chain
binds: [1] | [2] | CFP-MFF K151R (human) | [3]
